# Primary screen of a compound library

Chains of the proteins cited; added tags and fusions are not shown.
UniProt E9BF75, entry or part of it: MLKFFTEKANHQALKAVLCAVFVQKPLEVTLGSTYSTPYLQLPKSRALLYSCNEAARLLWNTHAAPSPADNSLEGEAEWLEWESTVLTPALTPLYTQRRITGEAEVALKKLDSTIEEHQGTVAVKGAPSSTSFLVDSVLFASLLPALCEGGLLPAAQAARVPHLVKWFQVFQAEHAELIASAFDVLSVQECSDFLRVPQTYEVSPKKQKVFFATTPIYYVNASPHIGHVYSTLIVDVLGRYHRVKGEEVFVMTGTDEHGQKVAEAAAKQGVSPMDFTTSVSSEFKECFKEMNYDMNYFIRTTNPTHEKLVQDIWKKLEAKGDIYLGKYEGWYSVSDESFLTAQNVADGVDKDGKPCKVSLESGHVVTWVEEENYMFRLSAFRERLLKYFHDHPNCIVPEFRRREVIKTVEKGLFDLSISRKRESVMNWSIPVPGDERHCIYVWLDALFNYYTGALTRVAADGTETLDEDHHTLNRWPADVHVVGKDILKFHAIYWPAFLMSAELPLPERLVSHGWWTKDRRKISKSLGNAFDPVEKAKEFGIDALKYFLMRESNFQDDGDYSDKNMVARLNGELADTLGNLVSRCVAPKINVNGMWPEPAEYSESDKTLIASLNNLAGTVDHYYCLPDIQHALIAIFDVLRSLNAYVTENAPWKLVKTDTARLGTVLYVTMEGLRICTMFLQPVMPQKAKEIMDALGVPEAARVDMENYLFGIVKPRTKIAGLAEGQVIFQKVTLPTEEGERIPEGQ

The values are deposited in ChEMBL (CHEMBL3988442, “University of Dundee, Small-Polar-MMV Screening Library” (2021)).

LdMetRS: 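Methionyl-tRNA synthetase (putative), Leishmania donovani (UniProt E9BF75). Primary screen of methionyl-tRNA synthetase; the read-out is not stated. The test concentration is not given. Values are per cent inhibition. Size under these conditions: about 68,000 compounds, about 24 of them at 50% or above in at least one test.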
Mtb heat-shock: 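Assay on Mycobacterium tuberculosis, filed only as a heat shock assay from Cornell; the read-out is not stated. The concentration is filed as 10 mM, unlikely as a test dose, so the dose is not known. Higher reads as stronger inhibition (inferred: compounds with an IC50 in retests scored well above the rest). Size under these conditions: about 69,000 compounds, about 930 of them at 50% or above in at least one test.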

Results are percentages, as filed. The record does not define 0% and 100%; most values in the screen are far below 50% and negative numbers occur (in some assays of this library far below -100). Compounds were drawn at random from those tested, without regard to their results.

{"structure": "COCC1CC2(CCN(Cc3ccc(C)o3)CC2)CN1C(C)C.O=C(O)C(F)(F)F.O=C(O)C(F)(F)F", "stereo": "configuration not stated", "Mtb heat-shock": -5.211}
{"structure": "CC(C)Cc1noc(CN(C)C(=O)C2COc3ccccc3C2)n1", "stereo": "configuration not stated", "LdMetRS": 14.96, "Mtb heat-shock": 5.664}
{"structure": "Cc1ccnc(CNC(=O)C2CC(=O)N(CCN(C)C)C2)c1", "stereo": "configuration not stated", "LdMetRS": 15.25, "Mtb heat-shock": 13.26}
{"structure": "Cn1cnc2c1CCN(CC(=O)N(Cc1ccsc1)C1CC1)C2", "LdMetRS": 4.188, "Mtb heat-shock": -12.95}
{"structure": "CN(C)CCN1CCOCC2(C1)CN(Cc1ccco1)CCO2.O=C(O)C(F)(F)F.O=C(O)C(F)(F)F.O=C(O)C(F)(F)F", "stereo": "configuration not stated", "Mtb heat-shock": 0.5269}
{"structure": "COCCCN1CC2(CCCCN2C(=O)COC)CC1=O", "stereo": "configuration not stated", "LdMetRS": 9.058, "Mtb heat-shock": -16.06}
{"structure": "CC1N(c2cnn(C)c2)C(=O)COC12CCN(c1ccccn1)CC2.O=C(O)C(F)(F)F", "stereo": "configuration not stated", "Mtb heat-shock": 8.354}
{"structure": "CCCN(CC)c1ccc(C(=O)N2CCCC2c2cnn(C)c2)cn1", "stereo": "configuration not stated", "LdMetRS": 10.89, "Mtb heat-shock": -0.02106}
{"structure": "O=C(NC1CCOCC1)c1cccc(C2CCCNC2)c1", "stereo": "configuration not stated", "LdMetRS": 11.76, "Mtb heat-shock": 2.404}
{"structure": "Cc1sc(-c2ccco2)nc1C(=O)N(CC1CCOC1)C1CC1", "stereo": "configuration not stated", "LdMetRS": 6.452, "Mtb heat-shock": 18.33}
{"structure": "CC(CCCC(C)(C)O)Nc1ccc(-c2nccn2C)nn1", "stereo": "configuration not stated", "LdMetRS": 12.54, "Mtb heat-shock": -12.15}
{"structure": "CC(C)n1cc(-c2c(C#N)c(N)nc3c2COCC3)cn1", "LdMetRS": 3.927, "Mtb heat-shock": -6.758}
{"structure": "CCNS(=O)(=O)c1ccc(C)c(C(=O)N(C)Cc2ccco2)c1", "LdMetRS": 1.77, "Mtb heat-shock": 16.28}
{"structure": "Cc1cc(C)cc(C(C)NC(=O)c2ccc(CS(C)(=O)=O)o2)c1", "stereo": "configuration not stated", "LdMetRS": 9.511, "Mtb heat-shock": 15.96}
{"structure": "OCC1(CCOc2ccccc2)CCN(c2ccc(Cl)cn2)CC1", "LdMetRS": 13.24, "Mtb heat-shock": -5.89}
{"structure": "O=C(O)C(F)(F)F.[H][C@@]12CN(C(=O)c3ccoc3)C[C@@]1([H])N(Cc1cccnc1)C(=O)CO2", "Mtb heat-shock": 20.41}
{"structure": "CN(Cc1ccco1)C(=O)c1cccc(N2CCCC2=O)c1", "LdMetRS": 8.939, "Mtb heat-shock": 20.19}
{"structure": "Cc1c(C(=O)O)cnn1-c1ccc(-c2nc(C(C)C)no2)cn1", "LdMetRS": 15.01, "Mtb heat-shock": 4.348}
{"structure": "[H][C@@]12CCC(=O)N(CCc3ccccc3)[C@]1([H])CCN(c1ccnc(C)n1)C2", "Mtb heat-shock": -2.595}
{"structure": "O=C(NCc1ccco1)[C@@H]1C[C@H]2OCC[C@H]2N(c2ncc(F)cn2)C1", "LdMetRS": 6.849}
{"structure": "Cc1noc(C)c1CSCc1csc(CS(C)(=O)=O)n1", "LdMetRS": 17.76, "Mtb heat-shock": 1.092}
{"structure": "Cc1ccc(CN2CCc3[nH]nc(C(=O)N(C)C)c3C2)s1", "LdMetRS": 8.333}
{"structure": "O=C(NCCOc1ccc(C(F)(F)F)cn1)c1ccoc1", "LdMetRS": 15.79, "Mtb heat-shock": -15.55}
{"structure": "CC(C)c1nnc2n1CCN(C(=O)c1ccc(CN(C)C)cc1)C2", "LdMetRS": 4.167, "Mtb heat-shock": 7.723}
{"structure": "[H][C@]12CCN(c3cc(OC)ncn3)[C@@]1([H])C[C@@H](C(=O)NCC1CC1)O2", "Mtb heat-shock": -24.24}
{"structure": "O=C(CN1CCN(CCO)CC1)NC(C1CC1)C1CC1", "LdMetRS": 6.354, "Mtb heat-shock": -29.08}
{"structure": "Cn1cc(C2CCCN2C(=O)CCCc2nc3ccccc3[nH]2)cn1", "stereo": "configuration not stated", "LdMetRS": -2.338, "Mtb heat-shock": 3.504}
{"structure": "Cc1cnc(-c2nc(NC3CC3)ncc2-c2cc(C)no2)cn1", "LdMetRS": 0.6452, "Mtb heat-shock": -4.402}
{"structure": "Fc1cccc(N2CCCC3(CN(Cc4ccncc4)CCO3)C2)c1.O=C(O)C(F)(F)F.O=C(O)C(F)(F)F.O=C(O)C(F)(F)F", "stereo": "configuration not stated", "Mtb heat-shock": 35.25}
{"structure": "CC(C)(C)OC(=O)N1CCN(C(=O)c2sccc2C2CC2)CC1", "LdMetRS": 18.06, "Mtb heat-shock": -9.089}

The last 2 entries again:

{"structure": "Fc1cccc(N2CCCC3(CN(Cc4ccncc4)CCO3)C2)c1.O=C(O)C(F)(F)F.O=C(O)C(F)(F)F.O=C(O)C(F)(F)F", "stereo": "configuration not stated", "Mtb heat-shock": 35.25}
{"structure": "CC(C)(C)OC(=O)N1CCN(C(=O)c2sccc2C2CC2)CC1", "LdMetRS": 18.06, "Mtb heat-shock": -9.089}